In patent US20210123066A1, “METHODS OF REGENERATION AND TRANSFORMATION OF STEVIA PLANT AND TRANSGENIC STEVIA PLANTS HAVING ENHANCED STEVIOL GLYCOSIDES CONTENT” (TEMASEK LIFE SCIENCES LABORATORY LIMITED, priority 2018, published 2021):
At least one structure is not confirmed: it was looked up by name or label, or the drawing left a doubt.

Tested on: Stevia leaf explants
Assay: Agrobacterium-mediated transformation of Stevia leaf explants
Type: cell-based, Stevia rebaudiana Bertoni
Settings: 50 mg/L in selection media

**Q.** `NC[C@H]1O[C@H](O[C@H]2[C@H](O)[C@@H](O[C@H]3O[C@H](CO)[C@@H](O)[C@H](N)[C@H]3O)[C@H](N)C[C@@H]2N)[C@H](O)[C@@H](O)[C@@H]1O` [kanamycin] was tested. Which “inhibition of regeneration of non-transgenic shoots” value did it give?
**A.** The value was “insufficient to completely inhibit”.
